## Library screening results

Data taken from ChEMBL document CHEMBL3988442, “University of Dundee, Small-Polar-MMV Screening Library” (2021).

Values are the deposited “Percent Effect”, in %. The record does not define 0% and 100%; most values in the screen are far below 50% and negative numbers occur (in some assays of this library far below -100). The compounds are a random part of those screened.

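Whole-cell assay for inhibitors of Mycobacterium tuberculosis growth, labelled Cornell in the record; the read-out is not stated. The concentration is filed as 10 mM, unlikely as a test dose, so the dose is not known. The record gives no direction; compounds strong in two other growth screens of this library score well above the rest, so higher reads as stronger inhibition. About 53,000 compounds were tested under these conditions; 1.7% (about 900) showed 50% or more at least once.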

- O=C(O)C(F)(F)F.O=C(O)C(F)(F)F.O=C(O)c1cc2c(nc1-c1ccoc1)CCN(CC1CCOC1)CC2 (centres undefined) | 12.45%
- CCCOC1CCCN(Cc2nc(-c3cccs3)oc2C)C1 (centres undefined) | -12.36%
- CCCn1nc2c(cc1=O)CN(Cc1cc(C)on1)CC2 | -17.86%
- CCC(c1ccc(F)cc1)N1CCn2c(CO)nnc2C1 (centres undefined) | 40%
- Cn1cccc1CN1CCC2(CCCN(C(=O)Cc3cccnc3)C2)C1 (centres undefined) | -18.17%
- CN1CC2(CCN(Cc3cccnc3)CC2)c2cc(F)ccc21 | -11.07%
- Nc1no[n+]([O-])c1C(=O)NCc1ccco1 | -27.15%
- Cn1nc(C#N)c2c1CN(C(=O)c1ccsc1)CCC2 | 12.37%
- CS(=O)(=O)N[C@@H]1CCN(Cc2cccs2)[C@H]1Cc1cccnc1 | 9.064%
- [H][C@@]12C[C@H](O)CCN1C(=O)CN(CCOC)C2=O | -10.18%
- CCN(CC)Cc1ccc(C(=O)NC2CCc3cc(Cl)ccc32)o1 (centres undefined) | -11.21%
- Cc1cc(-c2nn(C)c(Cl)c2CN2Cc3ccccc3C(O)C2)no1 (centres undefined) | 15.13%
- COC(=O)N1CCC(NC(=O)CC(C)CCc2ccccc2)CC1 (centres undefined) | -10.92%
- CC(O)CN1CCC(CNCc2ccccc2Br)CC1 (centres undefined) | 8.253%
- COCCC(=O)N1CCCC1c1cccc(C)c1C (centres undefined) | 10.34%
- CC(C)NC(=O)N1CCC2(CCC(=O)N2CCN2CCCC2)CC1.O=C(O)C(F)(F)F | 6.168%
- Cc1c(Cl)cccc1S(=O)(=O)N1CCC2(CC1)OCCS2 | 53.55%
- CC(C)Cc1ncc2c(n1)CN(c1cc(N3CCCC3)nc(N)n1)C2 | -47.93%
- CC(C)n1c(C(=O)N2CCCC2)nc2c1CCN(c1ncccn1)C2 | 38.61%
- O=C(c1cncs1)N1CCOCC(Cc2ccccn2)C1 (centres undefined) | 14.95%
- Cc1cc(=O)c2ccccc2n1CC1CCN(C(C)C)C1 (centres undefined) | 10.43%
- COc1ccccc1N1CCCC(Nc2ncccn2)C1=O (centres undefined) | 22.78%
- CC(=O)N1CCC(NC(=O)CN2CCCc3c(C)ccc(F)c32)CC1 | 8.483%
- CC(C)C(=O)NS(=O)(=O)c1ccc(C#N)cc1C(F)(F)F | 13.04%
- CNC(=O)Cn1ccc2ccc(NC(=O)C(C)CSC)cc21 (centres undefined) | -11.18%
- [H][C@]12CC[C@]([H])(CN(Cc3ccc(F)cc3)C1)N(Cc1snnc1C)C2 | 13.64%
- COCC(=O)NC1CC2(CCN(CCN(C)C)CC2)c2ccccc21 (centres undefined) | 0.1447%
- CN(C)C(=O)c1ccn(COc2ccccc2Cl)n1 | 20.59%
- Cn1cc(C(=O)N2CCCC2CCc2ccccc2)cn1 (centres undefined) | -4.179%
- CN(C)Cc1cnc2n1CCN(Cc1ccsc1)CC2.O=C(O)C(F)(F)F.O=C(O)C(F)(F)F | 40.81%
- CCS(=O)(=O)N1CCCn2nnc(Cn3cccc3)c2C1 | -0.1804%
- FC(F)(F)C1CN(Cc2cccc(-c3ccccn3)c2)CCO1 (centres undefined) | 43.57%
- CC(Cn1ccnc1)NC(=O)NCCN1CCc2ccccc2C1 (centres undefined) | 12.26%
- O=C(C1CC1)N1C[C@@H](F)[C@@H](OCc2nc3ccccc3[nH]2)C1 | -23.35%
- O=C(O)C(F)(F)F.O=C1COC2(CCN(Cc3ccoc3)CC2)CN1CCn1cccn1 | 7.381%
- CCS(=O)(=O)c1ccc2c(c1)OCCCO2 | -33.49%
- Cc1ccsc1CN(Cc1ccccn1)CC(O)CO (centres undefined) | 16.17%
- O=C(O)C(F)(F)F.O=S(=O)(C1CC1)N1CCC2(CC1)CN(Cc1nccs1)CCO2 | 11.25%
- Cc1cccc(CN2CCC(c3csc4nccn34)CC2)n1.O=CO | -11.19%
- O=C(NCc1ccc2c(c1)OCO2)[C@@H]1C=CCN1c1ncccn1 | 2.69%
- CCN(Cc1noc(C2CCC2)n1)C(=O)CCc1cc2n(n1)CCNC2 | 11.09%
- CCS(=O)(=O)CC(=O)NC(c1ccccc1)C1CCCC1 (centres undefined) | 19.65%
- Cc1nnc(CN(C)C2CCCN(Cc3noc(C4CC4)n3)C2)o1 (centres undefined) | -7.053%
- O=C(NCc1nncn1C1CCCCC1)C1COc2ccccc2O1 (centres undefined) | 14.23%
- O=C(c1cccc(-c2ncc[nH]2)c1)N1CCC(N2CCCC(O)C2)CC1 (centres undefined) | -11.38%
- O=C(NCc1nnc2n1CCC2)N(Cc1ccc(F)cc1)C1CC1 | -25.24%
- CN(Cc1cc(C2CC2)on1)C(=O)CN1C(=O)OC(C)(C)C1=O | 8.136%
- O=C(O)C(F)(F)F.[H][C@@]12COC[C@]1(COC)CN(Cc1cc(OC)cc(OC)c1)C2 | -4.436%
- Cc1ccc(-c2noc(CN3CCOC(CN(C)C)C3)n2)cc1F (centres undefined) | 11.03%
- NC(=O)CN(C(=O)Cc1cccc(C(F)(F)F)c1)C1CCCC1 | 7.807%
- Cc1noc(OCCOc2cccc(C#N)c2)n1 | 26.94%

Some entries from above, unchanged:

{"compound": "Cc1nnc(CN(C)C2CCCN(Cc3noc(C4CC4)n3)C2)o1", "stereo": "centres undefined", "percent effect": -7.053}
{"compound": "CCN(Cc1noc(C2CCC2)n1)C(=O)CCc1cc2n(n1)CCNC2", "percent effect": 11.09}
{"compound": "Cc1cc(-c2nn(C)c(Cl)c2CN2Cc3ccccc3C(O)C2)no1", "stereo": "centres undefined", "percent effect": 15.13}
{"compound": "CCCOC1CCCN(Cc2nc(-c3cccs3)oc2C)C1", "stereo": "centres undefined", "percent effect": -12.36}